From the supplement of paper PMC10338343
± gives the standard deviation. This is a selection; strong and weak results do not stand in their true shares. Many entries were measured with a wide error.

Columns and labels:
[1] = system: MILI (PIWIL2) piRISC loaded with L1MC piRNA (26 nt); test: pre-steady-state target cleavage rate (min^-1); MIWI and MILI are mouse PIWI proteins and EfPiwi is from a freshwater sponge; tags in brackets are library labels; higher = faster piRNA-guided slicing of the target; settings: guide: L1MC piRNA 5'p-UAACUAAAUACUAUGCAAGCUGUAGG
Summary of the method: (§1)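 Active affinity-purified piRISC carrying one synthetic guide (1 nM) was mixed with a transcribed, DNA-blocked target RNA library […] in HEPES–potassium acetate buffer at 33 °C for 0–8 or 0–960 min, with or without 500 nM GTSF1 partner protein. Uncleaved targets were then sequenced and normalised to depth and to weakly complementary targets. Three trials were pooled, and k3 was capped at 0.0001 min^-1. A burst-and-steady-state fit was applied to obtain the pre-steady-state cleavage rate.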

[2] = system: MIWI (PIWIL1) piRISC loaded with L1MC piRNA (30 nt); test: as above; settings: guide: L1MC piRNA 5'p-UAACUAAAUACUAUGCAAGCUGUAGGUCCU
Summary of the method: as §1

[3] = auxiliary factor: 500 nM mouse GTSF1
[4] = auxiliary factor: none (no GTSF1)
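Note: 1 nM active piRISC with 0.1 nM target library at 33 °C single turnover.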

Sequence | pre-steady-state target cleavage rate [1, 3] | pre-steady-state target cleavage rate [2, 3] | pre-steady-state target cleavage rate [2, 4] | pre-steady-state target cleavage rate [1, 4]
UCCUGGAUGUCGAACGGUAGUAUUUAGUUA | 0.000153 ± 0.03 | 0.000256 ± 0.02 |  | 
UCCUGGAUGUCGAACGUAAGUAUUUAGUAUA | 0.000139 ± 0.038 |  | 0.000115 ± 0.056 | 
UCCUGGAUGUCGAAGCAUAGUAAUUAGAUA |  |  | 0.00018 ± 0.015 | 0.000202 ± 0.023
UCCUGGAUGUCGAACGUUAGUAUUAUGUUA |  |  | 0.00025 ± 0.024 | 0.000348 ± 0.014
UCCUGGAUGUCGAACCUUACUAUUUAGUUA |  |  | 0.000312 ± 0.013 | 0.00028 ± 0.012
UCCUGGUACAGCUUGCAUUCAAUUUACAAA |  |  | 0.000202 ± 0.017 | 0.000717 ± 0.0093
UCCUGGAACAGCUUGCUAAGUAUUUAGAAA |  |  | 0.00182 ± 0.0036 | 0.00108 ± 0.0048
UCCUGGAUGUCGAACGUAUCUAUUAUGUUA |  |  | 0.000301 ± 0.019 | 0.000278 ± 0.016
UCCUGGAUGUCGAACGUAAGUUUUAAGUUA |  |  | 0.000124 ± 0.028 | 0.000123 ± 0.044
UCCUGGAUGUCGUUCCAUAGUAUUUACUUA |  |  | 0.000113 ± 0.04 | 0.000222 ± 0.03
UCCUGGAUGAGCUUGCAUAGAUUUAGUUA | 0.00162 ± 0.0074 | 0.00199 ± 0.0078 | 0.00192 ± 0.0039 | 0.00152 ± 0.0037
UCCUGGAUGUCGAACGUUAUAUUUAGUUA |  |  | 0.000325 ± 0.021 | 0.000168 ± 0.025
UCCUGCUACAGGAAGCAUAGUAUUUUCAAA |  |  | 0.000393 ± 0.019 | 0.000135 ± 0.021
UCCUCCUACAGCUUGCAUACAUUUUACAAA |  |  | 0.000806 ± 0.0094 | 0.000562 ± 0.01
UCCUGGAUGUGCUUGGAUAGUAUUUACUUA | 0.000445 ± 0.023 | 0.000665 ± 0.015 | 0.000806 ± 0.011 | 0.000141 ± 0.045
UCCUCCUACAGGAUGCAUAGUAUUUUCAAA |  |  | 0.0005 ± 0.011 | 0.000604 ± 0.0087
UCCUGCUACAGCUUGCAUAGUAAAAACAAA |  |  | 0.000576 ± 0.0095 | 0.000901 ± 0.0058
UCCUGGAUGUCGAUGCAUUGUAUUUUGUUA | 0.00184 ± 0.007 | 0.000194 ± 0.045 | 0.000351 ± 0.02 | 0.00045 ± 0.014
UCCUGCUACAGCUUGCAUUCAAUUUAGUAA |  |  | 0.000662 ± 0.011 | 0.000927 ± 0.0057
UCCUGGAUGUCGUUGCAUAGUAUUGUAGUUA | 0.00194 ± 0.0088 | 0.00141 ± 0.01 | 0.00106 ± 0.007 | 0.00131 ± 0.0076
UCCUGCUACUCCUUGCAUAGUAUUUUCAAA |  |  | 0.00115 ± 0.0044 | 0.000946 ± 0.0055
UCCUGCUACAGCUUGCAAUAGUAUUUAGUUA |  |  | 0.0013 ± 0.0049 | 0.00179 ± 0.0045

Sequence | pre-steady-state target cleavage rate [1, 3] | pre-steady-state target cleavage rate [2, 3] | pre-steady-state target cleavage rate [2, 4] | pre-steady-state target cleavage rate [1, 4]
UCCUGGAUGUGGAAGCAUAGUAUUUAGAAA | 0.00259 ± 0.0037 | 0.000167 ± 0.026 | 0.00107 ± 0.0056 | 0.000746 ± 0.0078
UCCUGGUACAGCUUGCAUAGUAUAUAGAAA |  |  | 0.00167 ± 0.0048 | 0.000881 ± 0.0071
UCCUGGAUGUGCUUGCAUAGAUUUUAGAAA | 0.000966 ± 0.011 | 0.000908 ± 0.012 | 0.00132 ± 0.0049 | 0.00117 ± 0.0042
UCCUGGAUCAGCUUGCAUAGAUAUUACAAA |  |  | 0.000303 ± 0.0088 | 0.000474 ± 0.0086
UCCUGGAUGAGGAUGCAUAGUAUUUAGAAA |  |  | 0.0013 ± 0.006 | 0.00166 ± 0.0032
UCCUGGAUGUCGAACCAUAAGUAUUUAGUUA |  |  | 0.000172 ± 0.015 | 0.000382 ± 0.012
UCCUGGAUCAGCUUGCAUAAGUAUUUAGUUA | 0.00234 ± 0.0063 | 0.00211 ± 0.0066 | 0.000353 ± 0.0085 | 0.00118 ± 0.0046
UCCUGCUACAGCUACGAUAGUAUUUAGUAA |  |  | 0.000835 ± 0.006 | 0.00108 ± 0.0051
UCCUGGUACAGCUUCCAUAGUAUUUUCAAA |  |  | 0.000845 ± 0.0078 | 0.00119 ± 0.0067
UCCUGGAUGUCGUAGCAUAGUAAUUAGUUA |  |  | 0.000855 ± 0.0088 | 0.00186 ± 0.0035
UCCUCCUACAGCUUGCAUACAUUUUAGAAA |  |  | 0.000259 ± 0.011 | 0.000545 ± 0.0069
UCCUGCUACAGCUUCCAUAGUAUAUAGUUA |  |  | 0.000988 ± 0.01 | 0.000679 ± 0.0092
UCCUGGAUGUCGAUGCAUAGUAUUUUCAAA [g6:g17:cont:t1A] |  |  | 0.000381 ± 0.014 | 0.000486 ± 0.0068
UCCUGGUACAGCUUGCAAUCUAUUUUCAAA |  |  | 0.000171 ± 0.017 | 0.000806 ± 0.011
UCCUGGAACAGGUUGCAUAGUAUUUAGAAA |  |  | 0.00224 ± 0.0029 | 0.00159 ± 0.0031
UCCUGCUACAGCUUGCACUAGUAUUUAGUUA |  |  | 0.000634 ± 0.013 | 0.00181 ± 0.004
UCCUGGAUGUCCUACCAUAGUAUUUAGUUA |  |  | 0.00138 ± 0.0033 | 0.00147 ± 0.004
UCCUGGAACAGCUACGAUAGUAUUUAGAAA |  |  | 0.000502 ± 0.01 | 0.00036 ± 0.013
UCCUCCUACAGCUUGCUUAGUAUUUAGAAA |  |  | 0.00234 ± 0.0025 | 0.00152 ± 0.0037
UCCUGGAUGUCGAAGCAUAGAUAAAUCAAA [g11:g16:cont:t1A] |  |  | 0.00061 ± 0.01 | 0.00019 ± 0.023
UCCUGGAUGUCGAAGCUUACUAUUUAGUUA |  |  | 0.000686 ± 0.0074 | 0.000235 ± 0.023
UCCUGCUAGAGCUUCCAUAGUAUUUAGUUA |  |  | 0.0016 ± 0.0031 | 0.00119 ± 0.005

Taken from above:
pre-steady-state target cleavage rate [2, 4], UCCUGGUACAGCUUGCAAUCUAUUUUCAAA is entered as 0.000171 ± 0.017
pre-steady-state target cleavage rate [1, 4], UCCUGCUACAGCUUCCAUAGUAUAUAGUUA is entered as 0.000679 ± 0.0092
pre-steady-state target cleavage rate [1, 4], UCCUGGAUGUCGAAGCAUAGAUAAAUCAAA [g11:g16:cont:t1A] is entered as 0.00019 ± 0.023

(cont.)

Sequence | pre-steady-state target cleavage rate [1, 3] | pre-steady-state target cleavage rate [2, 3] | pre-steady-state target cleavage rate [2, 4] | pre-steady-state target cleavage rate [1, 4]
UCCUGGAUGUCGUUGCAAAGUAUUUACUUA | 0.000318 ± 0.022 |  | 0.000357 ± 0.025 | 
UCCUGGAUGUGCUUGCAUAGUAAAUAGUAA |  |  | 0.000557 ± 0.0061 | 0.00113 ± 0.0052
UCCUGGAACAGCUUGCAUUCAAUUUACAAA |  |  | 0.000198 ± 0.018 | 0.000187 ± 0.014
UCCUGGAUGUCGAACGUAAGUAUUUAGUAA | 0.000346 ± 0.018 | 0.000104 ± 0.069 |  | 
UCCUGGAUCAGCUUGCUAAGUAUUUAGUAA |  |  | 0.00201 ± 0.0028 | 0.00186 ± 0.0029
UCCUGCUACAGCUUGCAAUCUAUUUACAAA |  |  | 0.000495 ± 0.016 | 0.000157 ± 0.017
UCCUGGAUCAGCUUCCAUAGUAUUUAGAUA |  |  | 0.000734 ± 0.011 | 0.000444 ± 0.0098
UCCUGGAACAGCUUCGUUAGUAUUUACAAA |  |  | 0.00076 ± 0.0062 | 0.000147 ± 0.018
UCCUGCUACAGCAUCCAUAGUAUUUAGUUA |  |  | 0.000884 ± 0.0082 | 0.00196 ± 0.0049
UCCUGGUACACCUUGCAUAGUAUUUAGAAA |  |  | 0.00201 ± 0.0038 | 0.00116 ± 0.0063
UCCUCCUACAGCUUGCAAUCAUAAAUCAAA [g14:g26:cont:t1A] |  |  | 0.000232 ± 0.012 | 0.000141 ± 0.018
UCCUGGAACAGCUAGCAUAGUAUUUUCAAA |  |  | 0.00109 ± 0.0057 | 0.001 ± 0.0055
UCCUGGAUGUGCUACGAUAGUAUUUAGUAA |  | 0.000971 ± 0.0083 |  | 0.000407 ± 0.013
UCCUCCUACAGCUUGCAUAGUAUUAACAAA |  |  | 0.00138 ± 0.0056 | 0.00139 ± 0.0042
UCCUGGAUGUCGAAGCUUAGUAUUUACUUA | 0.000134 ± 0.07 |  | 0.000338 ± 0.014 | 
UCCUGGAUGUCGAACGUUAGUGUUUAGUUA |  |  | 0.000222 ± 0.023 | 0.000349 ± 0.012
UCCUGGUACAGCUUCCAUAGUAUUUAGAUA |  |  | 0.00101 ± 0.0057 | 0.000759 ± 0.01
UCCUGCUACAGCUUCCAUAGUAUUUAGUAA |  |  | 0.00117 ± 0.006 | 0.000724 ± 0.0076
UCCUGGAUGUGCUUCCAUAGUAUUUAGAAA |  |  | 0.000512 ± 0.01 | 0.000304 ± 0.019
UCCUGGAUGUGCUUCGAUAGUAUUUAGUAA |  |  | 0.000938 ± 0.008 | 0.0012 ± 0.0056
